Data as given in PubChem BioAssay AID602196 (INSERM, 2012)
Shown is one part, drawn at random, of about 23,000 reagents. 455 of them (2%) were called active. 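Active includes both protection and sensitisation; some change values fall well beyond the stated -50 to +50 range.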 Reagents against one gene are numbered here. The record does not give: the amount of reagent.

Aim: 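Genes whose knock-down alters cisplatin killing of lung cancer cells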
Cells: human A549 lung cancer cells
Reagents: siRNA pair against human genes
Time to read-out: 48 h transfection before cisplatin; time from cisplatin to read-out not stated
Treatment: cisplatin at a dose killing half of control-siRNA cells; exact dose and duration not given
Read-out: 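Shift in cisplatin death relative to control siRNA, from -50 (all cells die) to +50 (no cells die); siRNAs harmful on their own scored 0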
Direction: two-siRNA summed score (-2 to +2): higher = both siRNAs protect from cisplatin killing; -2 means both sensitise; mean protection from cisplatin (shift in death) and protection from cisplatin (shift in death), siRNA C and protection from cisplatin (shift in death), siRNA D: higher = protection from cisplatin killing
Hit rule: 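Each siRNA scores 0 if harmful alone by LDH or WST-1, otherwise +1 if it reduces and -1 if it increases cisplatin killing; a gene is active when both siRNAs agree (sum +2 or -2)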
Meaning of the calls: active = both siRNAs shift cisplatin killing the same way; inactive = no consistent shift, or siRNA harmful alone

| gene symbol | reagent no. | two-siRNA summed score (-2 to +2) | mean protection from cisplatin (shift in death) (%) | protection from cisplatin (shift in death), siRNA C (%) | protection from cisplatin (shift in death), siRNA D (%) | outcome |
| --- | --- | --- | --- | --- | --- | --- |
| CCDC197 | 1 | -2 | -16.3 | -12.9 | -19.7 | active |
| LOC391714 | 1 | -1 | -2.1 | 9.6 | -13.7 | inactive |
| LOC389221 | 1 | 1 | 17.9 | 20.1 | 15.7 | inactive |
| LOC442245 | 1 | 0 | -0.4 | 0.3 | -1 | inactive |
| EVX1 | 1 | 0 | -4.1 | -11.4 | 3.2 | inactive |
| FTL | 1 | 0 | 5.6 | 34.1 | -22.9 | inactive |
| TUBG2 | 1 | 0 | 9.4 | -9 | 27.9 | inactive |
| SGK1 | 1 | 1 | 6.9 | -5 | 18.8 | inactive |
| LOC139116 | 1 | 0 | 8.2 | 9.4 | 7 | inactive |
| PIF1 | 1 | 0 | 3.4 | 22 | -15.1 | inactive |
| OR4D1 | 1 | 0 | 3.6 | -6.7 | 13.9 | inactive |
| FTLP3 | 1 | 0 | 12.6 | 17.5 | 7.7 | inactive |
| GRN | 1 | 0 | 4.5 | 5.1 | 3.9 | inactive |
| ARL11 | 1 | 0 | 1 | -9.2 | 11.1 | inactive |
| MLLT6 | 1 | 0 | 0.5 | -1.9 | 2.9 | inactive |
| LOC440388 | 1 | 0 | 16.9 | 10 | 23.7 | inactive |
| ADCY2 | 1 | 1 | 17.3 | 19.2 | 15.3 | inactive |
| TBC1D8 | 1 | 1 | 17.1 | 9.9 | 24.3 | inactive |
| THADA | 1 | 0 | 11.4 | 10.3 | 12.4 | inactive |
| LOC400660 | 1 | 1 | 7.9 | -2.3 | 18.2 | inactive |
| PPIAP74 | 1 | 0 | 10.3 | 14.2 | 6.4 | inactive |
| LOC442219 | 1 | 2 | 13.6 | 16.6 | 10.6 | active |
| LOC442007 | 1 | 1 | 11.6 | 22.9 | 0.3 | inactive |
| ZNF532 | 1 | 0 | 2.4 | -2.4 | 7.2 | inactive |
| DNASE2B | 1 | 0 | 8.2 | 8.9 | 7.5 | inactive |
| BPIFB3 | 1 | 0 | -0.1 | 6.5 | -6.7 | inactive |
| ORAI1 | 1 | 0 | -0.4 | 6.2 | -7 | inactive |
| FAH | 1 | 0 | 10.7 | 20.6 | 0.9 | inactive |

7 entries already listed, ordered by “protection from cisplatin (shift in death), siRNA C (%)”, descending:
| gene symbol | reagent no. | two-siRNA summed score (-2 to +2) | mean protection from cisplatin (shift in death) (%) | protection from cisplatin (shift in death), siRNA C (%) | protection from cisplatin (shift in death), siRNA D (%) | outcome |
| --- | --- | --- | --- | --- | --- | --- |
| LOC442007 | 1 | 1 | 11.6 | 22.9 | 0.3 | inactive |
| FAH | 1 | 0 | 10.7 | 20.6 | 0.9 | inactive |
| LOC442219 | 1 | 2 | 13.6 | 16.6 | 10.6 | active |
| DNASE2B | 1 | 0 | 8.2 | 8.9 | 7.5 | inactive |
| BPIFB3 | 1 | 0 | -0.1 | 6.5 | -6.7 | inactive |
| ORAI1 | 1 | 0 | -0.4 | 6.2 | -7 | inactive |
| ZNF532 | 1 | 0 | 2.4 | -2.4 | 7.2 | inactive |

Further entries follow:
| gene symbol | reagent no. | two-siRNA summed score (-2 to +2) | mean protection from cisplatin (shift in death) (%) | protection from cisplatin (shift in death), siRNA C (%) | protection from cisplatin (shift in death), siRNA D (%) | outcome |
| --- | --- | --- | --- | --- | --- | --- |
| LOC388690 | 1 | 0 | 5.6 | 5 | 6.1 | inactive |
| LOC441040 | 1 | 0 | -2.7 | 0.1 | -5.6 | inactive |
| RAB3A | 1 | 0 | -3.7 | -6.4 | -1 | inactive |
| COLGALT2 | 1 | 0 | 4.9 | 4.7 | 5 | inactive |
| FAM170B | 1 | 0 | 16.5 | 22.8 | 10.3 | inactive |
| OR4C13 | 1 | -1 | -2.3 | -18.7 | 14.1 | inactive |
| PHAX | 1 | 0 | 6 | 9.8 | 2.2 | inactive |
| PSMA6 | 1 | 0 | 9.6 | -3.7 | 23 | inactive |
| ASB1 | 1 | 0 | -9.5 | 3.3 | -22.3 | inactive |
| SLC25A6P2 | 1 | 0 | 4.3 | 20.6 | -12 | inactive |
| LOC389160 | 1 | 0 | 10.5 | 10.1 | 10.9 | inactive |
| PSMC2 | 1 | 0 | -5.3 | -12.2 | 1.6 | inactive |
| ATP5IF1 | 1 | 0 | 3.7 | -0.2 | 7.6 | inactive |
| OR10G4 | 1 | 1 | 8.1 | -1 | 17.1 | inactive |
| LOC440751 | 1 | 1 | 10.9 | 16.7 | 5.1 | inactive |
| PLP1 | 1 | 0 | -6.6 | -8.1 | -5.1 | inactive |
| SLC22A1 | 1 | 1 | 13.8 | 25.6 | 2.1 | inactive |
| TREM1 | 1 | 0 | -11.1 | -20.8 | -1.3 | inactive |
| ZEB1 | 1 | 0 | 2.6 | 3.3 | 1.9 | inactive |
| UNKL | 1 | 0 | 0.1 | -0.9 | 1.1 | inactive |
| UNKL | 2 | 1 | 21.5 | 7.4 | 35.6 | inactive |
| FAM76B | 1 | 0 | 2.1 | 9.4 | -5.3 | inactive |
| CNNM1 | 1 | -1 | -4.2 | 8.3 | -16.7 | inactive |
| FBXW4 | 1 | 0 | -14.5 | -1.5 | -27.6 | inactive |
| RIOK2 | 1 | 0 | -1.2 | 5.6 | -7.9 | inactive |
| TPGS1 | 1 | 0 | 9.3 | 13.7 | 4.9 | inactive |
| LOC440102 | 1 | 1 | 12.2 | 11.7 | 12.7 | inactive |
| XPNPEP1 | 1 | 0 | -17.7 | -36.3 | 0.9 | inactive |
| TTBK1 | 1 | 0 | 11.5 | 20.8 | 2.2 | inactive |
